For one substance, binding results are on record in article PMC3089606, “The E. coli Anti-Sigma Factor Rsd: Studies on the Specificity and Regulation of Its Expression” (PLoS ONE, 2011).

Amino acid sequences for entries named in this document (tags omitted).
UniProt P13445: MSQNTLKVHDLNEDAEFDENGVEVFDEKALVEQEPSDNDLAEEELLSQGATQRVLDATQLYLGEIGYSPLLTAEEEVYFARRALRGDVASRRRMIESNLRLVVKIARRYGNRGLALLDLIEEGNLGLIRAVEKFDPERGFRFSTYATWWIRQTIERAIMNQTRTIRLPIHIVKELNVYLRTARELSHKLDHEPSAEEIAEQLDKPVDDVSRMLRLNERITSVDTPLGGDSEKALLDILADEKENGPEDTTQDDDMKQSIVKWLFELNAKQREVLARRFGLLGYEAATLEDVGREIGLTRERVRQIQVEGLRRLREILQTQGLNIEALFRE

No constants are given. Whether binding was seen depends on the method and setting. Some binding calls cover weakened binding; strength is not graded here.

For the assay, the target named is T1, Rsd (regulator of sigma D), native protein (E. coli) (UniProt P0AFX4).
T1 sequence: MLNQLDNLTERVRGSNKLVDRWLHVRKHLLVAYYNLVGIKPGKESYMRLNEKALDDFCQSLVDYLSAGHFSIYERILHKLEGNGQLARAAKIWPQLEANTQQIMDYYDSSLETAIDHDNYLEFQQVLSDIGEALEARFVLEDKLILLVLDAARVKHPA
Description: cross-linking; 3 µg Rsd with 3 µg σ^70, σ^38 or Rsd (or each protein alone), 30 minutes in 15 µl 50 mM HEPES pH 7.4, 5% glycerol, 0.1 mM EDTA, 0.1 mM DTT; 0.02% glutaraldehyde, room temperature 30 minutes; SDS gel, Coomassie staining; both purified.

On to “RNA polymerase sigma factor σ^38 (from UniProt P13445 1-330)”, for which the binding result is “binds weakly”.
